Over roughly 33,000 sequences, “E-score (-0.5 to 0.5)” has its median near -0.0014; the highest 2% begin near 0.25. The list shows a part of the results.
target: T1, Cad1 (UniProt P24813); test: PBM E-score (8-mer binding enrichment) (E-score (-0.5 to 0.5)); higher = stronger / more preferred TF binding; details: protein concentration: 100 nM; construct: GST-full length
T1 sequence: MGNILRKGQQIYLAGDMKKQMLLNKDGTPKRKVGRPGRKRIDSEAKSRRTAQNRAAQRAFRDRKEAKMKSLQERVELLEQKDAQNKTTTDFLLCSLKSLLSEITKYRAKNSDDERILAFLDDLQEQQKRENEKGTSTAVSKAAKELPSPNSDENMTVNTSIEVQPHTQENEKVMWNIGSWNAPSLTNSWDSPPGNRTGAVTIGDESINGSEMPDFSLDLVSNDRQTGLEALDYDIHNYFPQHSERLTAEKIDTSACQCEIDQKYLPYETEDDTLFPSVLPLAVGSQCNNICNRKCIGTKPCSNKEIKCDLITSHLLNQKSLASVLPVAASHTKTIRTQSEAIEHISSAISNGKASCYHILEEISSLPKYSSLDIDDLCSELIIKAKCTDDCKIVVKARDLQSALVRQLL
Procedure, shortened: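 Yeast transcription factors carrying a GST tag, as full-length proteins or DNA-binding domains, were produced by PURExpress in vitro transcription/translation. About 100-200 nM protein was applied to universal all-10-mer Agilent arrays, double-stranded by primer extension on fresh or once-stripped slides. Bound protein was detected with fluorescent anti-GST, and scans were normalised with masliner. The Universal PBM Analysis Suite gave each ungapped eight-base word, pooled with its reverse complement, an E-score, a modified Wilcoxon-Mann-Whitney statistic.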

Row | Sequence | PBM E-score
1 | CAACCGAC | 0.252
2 | AGCACACA | 0.0604
3 | AAACACTC | -0.00242
4 | AGGATCTC | -0.179
5 | AGATGAGA | 0.0716
6 | AATCTAAA | 0.111
7 | CTGATATC | 0.0906
8 | AACGATGG | -0.103
9 | ACAGAACT | 0.117
10 | ACCCTGAT | -0.0429
11 | ACACAGTA | 0.0407
12 | ATTTGACC | 0.0357
13 | AAGTCTAG | -0.155
14 | ACCATGAC | 0.0327
15 | GCGGAAAA | 0.0254
16 | GCAAGGAC | -0.172
17 | GCACCTGA | 0.114
18 | AAGACAAC | 0.336
19 | CAGAGAGG | -0.329
20 | GGAGTGAC | 0.148
21 | CCTTCTCG | -0.189
22 | GTGCACGA | 0.0687
23 | ATGATATG | 0.29
24 | CACCGCTC | 0.00263
25 | ACTTTGAA | -0.0796

Row | Sequence | PBM E-score
26 | GTCGAACA | 0.133
27 | CAGTAGTC | -0.207
28 | ACTTAGCG | 0.121
29 | AGGCAAAC | -0.106
30 | ATCACCAC | 0.245
31 | ATAAGGGC | -0.0823
32 | CGATTGGA | -0.00502
33 | GTCGTCAA | 0.0753
34 | GAATATAC | 0.067
35 | CCTCACAA | -0.0594
36 | AATCTCGT | 0.115
37 | TAAAAATA | 0.277
38 | ATGAAGTA | -0.00826
39 | AGTTCAGC | -0.137
40 | AACAACAG | 0.0644
41 | CAAGGACA | -0.0495
42 | AATCGACG | 0.13
43 | ATATCTTG | -0.00561
44 | GGGCACTA | -0.0902
45 | ACTATAAA | 0.162
46 | CGTATTGA | 0.137
47 | AAGAATGC | 0.0333
48 | ACCCTCCG | -0.296
49 | ACCGGACG | 0.0174
50 | CATAGTCG | -0.0299

Rewritten with tabs: part of the list above.
Row	Sequence	PBM E-score
1	CAACCGAC	0.252
2	AGCACACA	0.0604
3	AAACACTC	-0.00242
5	AGATGAGA	0.0716
6	AATCTAAA	0.111
9	ACAGAACT	0.117
10	ACCCTGAT	-0.0429
11	ACACAGTA	0.0407
12	ATTTGACC	0.0357
13	AAGTCTAG	-0.155
14	ACCATGAC	0.0327
16	GCAAGGAC	-0.172
17	GCACCTGA	0.114
18	AAGACAAC	0.336
19	CAGAGAGG	-0.329
20	GGAGTGAC	0.148
22	GTGCACGA	0.0687
24	CACCGCTC	0.00263
25	ACTTTGAA	-0.0796
26	GTCGAACA	0.133
27	CAGTAGTC	-0.207
28	ACTTAGCG	0.121
29	AGGCAAAC	-0.106
30	ATCACCAC	0.245
31	ATAAGGGC	-0.0823
32	CGATTGGA	-0.00502
37	TAAAAATA	0.277
39	AGTTCAGC	-0.137
42	AATCGACG	0.13
43	ATATCTTG	-0.00561
44	GGGCACTA	-0.0902
45	ACTATAAA	0.162
46	CGTATTGA	0.137
47	AAGAATGC	0.0333

Following part

Row | Sequence | PBM E-score
51 | CTGGTAGC | 0.0507
52 | CGTCAAAA | 0.131
53 | ATATGGAA | 0.0209
54 | GTGGTAAC | -0.0342
55 | AGCGCTTG | 0.0313
56 | TAACTTAA | 0.259
57 | CGCGCCCA | 0.122
58 | TATCAACA | 0.0364
59 | ACGGCTAA | 0.165
60 | GCAGTCGA | -0.0242
61 | GGCGGTGA | -0.162
62 | ACCTTTAC | 0.0425
63 | GAAATAAC | 0.133
64 | CACGAGTG | -0.0974
65 | AACAGTGC | 0.082
66 | CTTAATAA | 0.383
67 | GAGACAAA | -0.167
68 | ACAGAAAG | -0.0964
69 | ATATGCAT | 0.075
70 | AGCACATG | 0.123
71 | CAGGTCCC | -0.169
72 | GTATAGTA | -0.01
73 | CTCAAAGA | -0.107
74 | AGAGTGTC | 0.198
75 | AGTTGGTC | -0.0544

In another format: results already given
Row	Sequence	PBM E-score
29	AGGCAAAC	-0.106
74	AGAGTGTC	0.198

Continuation:

Row | Sequence | PBM E-score
76 | ATTCGAAA | 0.119
77 | GGATGCAC | -0.0779
78 | GCCGGCAC | 0.184
79 | GGGGCCAC | -0.205
80 | CAAATCGC | -0.0674
81 | GAGGGACC | -0.204
82 | CTTAAGTC | -0.0312
83 | AACGCCCT | -0.119
84 | ACGCTCGG | 0.0614
85 | CGGAGGAG | -0.31
86 | CAACAGCG | -0.0537
87 | CCGAACCG | 0.0692
88 | AGCGACAT | 0.0338
89 | ATTATACA | 0.129
90 | CAAGGAGA | -0.324
91 | AAAACGAT | 0.0683
92 | ATGTGTGC | -0.174
93 | CTTGCGGA | -0.201
94 | TAGTGCAA | 0.197
95 | CATAACGA | 0.0579
96 | CGCAATAA | 0.159
97 | GGACCGAA | 0.0997
98 | AAGGGAAC | -0.0524
99 | ACGGCCGT | -0.0548
100 | ATCTAAGA | -0.103

Row | Sequence | PBM E-score
101 | ACGTAACA | 0.0773
102 | ATTACAGG | 0.228
103 | ATGACAGA | 0.0846
104 | GTTAGCCA | -0.055
105 | AACTACGT | -0.0242
106 | ACATATAA | 0.115
107 | GCAATACC | -0.0457
108 | CCTAAGCG | -0.0185
109 | GCTGGTGA | 0.0363
110 | AGGACAAC | -0.0394
111 | GCGACCTA | 0.00515
112 | ATAAAAGG | -0.231
113 | GAAATTTA | 0.192
114 | AGTCCAAG | -0.0288
115 | TCTATTAA | 0.0815
116 | GGAAAGAC | -0.184
117 | TCATCCGA | 0.134
118 | CCTCCAAC | -0.119
119 | ACGATATA | 0.0816
120 | CACAGAAG | 0.0443
121 | ACATGCTC | -0.0876
122 | ATATAAGC | 0.192
123 | TAATGGGA | -0.203
124 | TAGCAGCA | -0.00113
125 | CCGACGCG | 0.0401

Row | Sequence | PBM E-score
126 | CCGTGCCA | -0.13
127 | CACGAAAC | 0.0654
128 | GGCAAAAC | -0.0978
129 | ACACTACG | 0.0225
130 | CAATTGTC | 0.146
131 | AGTGTCGA | -0.0678
132 | GACTTATA | 0.214
133 | GCATTGTA | -0.178
134 | ATCTCGGA | 0.204
135 | AAATGCGA | 0.0875
136 | ACAGGAAC | -0.0285
137 | CGGGCTTC | -0.0964
138 | GGCGACGA | -0.071
139 | TTCATAAA | 0.0746
140 | CCGCCTCG | -0.0661
141 | AGGTTGTA | -0.0369
142 | ACCCACGG | -0.212
143 | ACGTGGCA | -0.178
144 | CTATAGGA | -0.0308
145 | TCTGTTCA | 0.103
146 | ATCCTCCA | -0.128
147 | GCTGTGAC | -0.0618
148 | ACGACTAC | -0.0918
149 | ACTATGAG | -0.0731
150 | CGATTGAG | -0.0329

Reformatted: results already given
Row	Sequence	PBM E-score
130	CAATTGTC	0.146
131	AGTGTCGA	-0.0678

More entries follow.

Row | Sequence | PBM E-score
151 | GAATTATA | 0.19
152 | CTACTACA | 0.196
153 | CAACAGTG | 0.0579
154 | ACACCCCA | -0.0789
155 | GGAAGAAC | -0.00741
156 | AATGTCGA | 0.199
157 | ACCACGGC | -0.0698
158 | CGTTCGAG | 0.0406
159 | CGACGACA | -0.109
160 | AGGAGTCA | 0.0303
161 | CCTGGTGA | -0.0273
162 | AAGTGACT | -0.0619
163 | AACCCGAC | 0.122
164 | CAATCTCC | 0.0166
165 | CGGGCGGC | -0.138
166 | GCCAGAGC | -0.132
167 | GGCGCAAA | 0.143
168 | AGCCCAAA | 0.0873
169 | CCCGCCAA | -0.0379
170 | ATGTTTCC | -0.00726
171 | CGAAGCGA | 0.0918
172 | AAACTCAA | 0.163
